Assay results as given in patent publication US20170189504A1, “NOVEL PEPTIDES AND COMBINATION OF PEPTIDES FOR USE IN IMMUNOTHERAPY AGAINST VARIOUS CANCERS” (immatics biotechnologies GmbH, priority 2015, published 2017).

Test system: HLA-A*02
Assay: Identification and relative LC-MS quantitation of HLA-A*02-presented tumor-associated peptides on tissue samples (presentation profiles, Tables 13A, 13B, 15, FIG. 1)
Design: species or system human; key to Presentation score NHL / Presentation score CLL / Presentation score BRCA / Presentation score AML / Presentation score GB / Presentation score NSCLC / Presentation score GBC_CCC / Presentation score UEC / Presentation score MEL / Presentation score OSCAR / Presentation score GC / Presentation score UBC / Presentation score OC / Presentation score RCC / Presentation score CRC / Presentation score PCA / Presentation score HCC / Presentation score PC / Presentation score SCLC: specifically presented on tumors (++++); very highly over-presented on tumors compared to a panel of normal tissues (+++); highly over-presented on tumors compared to a panel of normal tissues (++); over-presented on tumors compared to a panel of normal tissues (+)
Conditions: for Presentation score NHL: non-Hodgkin lymphoma (N = 18) vs panel of normal tissues (N = 262); for Peptide Presentation on cancer entities: HLA-A*02-binding tumor-associated peptides; for Presentation score AML: acute myeloid leukemia (N = 18) vs panel of normal tissues (N = 262); for Presentation score CLL: chronic lymphocytic leukemia (N = 17) vs panel of normal tissues (N = 262); for Presentation score NSCLC: non-small cell lung cancer (N = 90) vs panel of normal tissues (N = 262); for Presentation score OC: ovarian cancer (N = 20) vs panel of normal tissues (N = 262); for Presentation score UBC: urinary bladder cancer (N = 16) vs panel of normal tissues (N = 262); for Presentation score OSCAR: esophageal cancer, including cancer of the gastric-esophageal junction (N = 17) vs panel of normal tissues (N = 262); for Presentation score BRCA: breast cancer (N = 17) vs panel of normal tissues (N = 262)
[1] = Table 13A, cancer entities on which the peptide was found presented
[2] = Table 13B, presentation on additional cancer entities

Substance	Presentation score NHL (HLA-A*02 peptides)	Peptide Presentation on cancer entities [1]	Peptide Presentation on cancer entities [2]	Presentation score NSCLC (HLA-A*02 peptides)	Presentation score OC (HLA-A*02 peptides)	further results
107 (LLVPTSGIYFV; listed as Homo sapiens) [compound 107]	++++	NHL				
243 (FMADDIFSV; listed as Homo sapiens) [compound 243]	++++	NHL	SCLC			
38 (FLGPRIIGL; listed as Homo sapiens) [compound 38]	++++	CLL, AML, NHL	CRC			Presentation score AML (HLA-A*02 peptides): ++++; Presentation score CLL (HLA-A*02 peptides): ++++
28 (SLPNGKPVSV; listed as Homo sapiens) [compound 28]	++++	NSCLC, OC, UBC, NHL	OSCAR, SCLC, HNSCC	++++	++++	Presentation score UBC (HLA-A*02 peptides): ++++
74 (TLFGYSVVL; listed as Homo sapiens) [compound 74]		AML				Presentation score AML (HLA-A*02 peptides): ++++
115 (SLDPDTLPAV; listed as Homo sapiens) [compound 115]		NSCLC, OC		++++	++++	
7 (ILDHEVPSL; listed as Homo sapiens) [compound 7]			HNSCC			Presentation score AML (HLA-A*02 peptides): ++; Presentation score CLL (HLA-A*02 peptides): +; Presentation score OSCAR (HLA-A*02 peptides): +++; Presentation score MEL (HLA-A*02 peptides, melanoma (N = 7) vs panel of normal tissues (N = 262)): +
98 (RLFPDFFTRVAL; listed as Homo sapiens) [compound 98]		NSCLC		+		
134 (GLAVPTPSV; listed as Homo sapiens) [compound 134]		NSCLC, OC	HNSCC	++++	++++	
104 (ALISWQPPRA; listed as Homo sapiens) [compound 104]						Presentation score GB (HLA-A*02 peptides, glioblastoma (N = 41) vs panel of normal tissues (N = 262)): ++++
252 (RLMEICESL; listed as Homo sapiens) [compound 252]		AML	UEC, MEL			Presentation score AML (HLA-A*02 peptides): ++++
114 (QLIQTLHAV; listed as Homo sapiens) [compound 114]		OC, RCC			++++	Presentation score RCC (HLA-A*02 peptides, renal cell carcinoma (N = 20) vs panel of normal tissues (N = 262)): ++++
234 (LLSPHNPAL; listed as Homo sapiens) [compound 234]	++++	NSCLC, CLL, OSCAR, OC, UBC, BRCA, NHL	GB, HCC, SCLC, UEC, MEL, RCC	++++	++++	Presentation score BRCA (HLA-A*02 peptides): ++++; Presentation score CLL (HLA-A*02 peptides): ++++; Presentation score OSCAR (HLA-A*02 peptides): ++++; Presentation score UBC (HLA-A*02 peptides): ++++
95 (GLLGSLFFL; listed as Homo sapiens) [compound 95]	++	NSCLC, OC, SCLC, UEC, BRCA, GBC_CCC, AML, NHL	GC, OSCAR, UBC, MEL, RCC, CRC, PC, HNSCC	++	+	Presentation score BRCA (HLA-A*02 peptides): ++; Presentation score GBC_CCC (HLA-A*02 peptides, gallbladder adenocarcinoma and cholangiocarcinoma (N = 6) vs panel of normal tissues (N = 262)): +++; Presentation score SCLC (HLA-A*02 peptides, small cell lung cancer (N = 19) vs panel of normal tissues (N = 262)): +
149 (ILNTHITEL; listed as Homo sapiens) [compound 149]	++++	NHL	BRCA			
156 (ILGDLSHLL; listed as Homo sapiens) [compound 156]		NSCLC, PC				Presentation score PC (HLA-A*02 peptides, pancreatic cancer (N = 16) vs panel of normal tissues (N = 262)): ++
